Data from paper PMC12126490, “The HP1 box of KAP1 organizes HP1α for silencing of endogenous retroviral elements in embryonic stem cells” (Nature Communications, 2025).

System: FL HP1α and L139E/L150E HP1α (oligomeric states)
Experiment: mass photometry, HP1α oligomerization (Fig. 5c)
Set-up: species or system human
Settings: 50 mM Tris pH 7.5, 150 mM NaCl, 5 mM DTT, room temperature

| Substance | molecular mass, maximum of the fit (10 nM) | molecular mass, maximum of the fit (50 nM) |
| --- | --- | --- |
| FL HP1α: Human full-length HP1α | 57 kDa | 72 kDa |
| L139E/L150E FL HP1α: β-sheet interface mutant of full-length HP1α | 50 kDa | 59 kDa |
